The subject of one series is morphine-dependent mice. Description: Body temperature, body weight and mortality during 3-day morphine pellet implantation with multiple peptide injections. The format is in vivo. As for the experimental part:
Male C57B1/6J, Swiss Webster, and ICR mice weighing 26±4 g (SD) were used in these studies.
The mice were randomly divided into two groups. One received SC injections of water (vehicle) while the other received the peptide under investigation (50 μg/mouse on day one). Two hours later the mice were further subdivided and each subgroup was implanted with placebo or morphine pellets. The injections of vehicle and peptide were repeated 24 and 48 hours after the first injection in their respective groups. Morphine pellets containing 75 mg of morphine free base were implanted subcutaneously (SC) between 10-11 A.M. and were removed 3 days later at the same time. The control animals were implanted with placebo pellets. Body temperature and weight were measured daily at 11 A.M. Temperature was measured using a lubricated rectal probe inserted 2.5 cm into the rectum and measured with a telethermometer (Model 43TA Yellow Springs Instrument Co., Yellow Springs, Ohio).
A similar relationship was found for the loss in body weight. Swiss Webster mice lost 16% and 14% in body weight when receiving Z-Pro-D-Leu or vehicle respectively. The C57B1/6J mice given Z-Pro-D-Leu/morphine lost 14%, while the vehicle/morphine group lost 11% in body weight during this period regardless of peptide or vehicle injections. There was one significant strain difference, i.e. a greater mortality during morphine treatment of C57B1/6J mice ([…], Binomial test).

A further series deals with mice. Kind of series: One-trial passive avoidance task (memory retention). Format: in vivo.

On to Z-Pro-D-Leu, for which the “loss in body weight” value with morphine-dependent mice (C57B1/6J mice, peptide/morphine) is on record as 14%; in the series on morphine-dependent mice (Swiss Webster mice, morphine pellets), 16%. Besides, the “temperatures of placebo-implanted mice over duration of pellet implantation” value in the series on morphine-dependent mice (placebo pellets) is “did not change”. Besides, the median step-through latency turned out to be 180 ± 0.0 s in the series on mice (C57B1/6J mice, 100 μg peptide SC, n=4); 180 ± 32.4 s in the series with mice (ICR mice, 100 μg peptide SC after training, tested 24 hours later, ±S.E., n=10); 180 ± 51.9 s with mice (Swiss Webster mice, 100 μg peptide SC, n=4). The “effect on retention of memory” value in the series with mice (ICR, Swiss Webster and C57B1/6J mice) was “no effect in retention of memory”.

Values taken from patent publication US4416871A, “Inhibition by peptides of tolerance to and physical dependence on morphine” (The United States of America as represented by the …, priority 1982, dated 1983).
